# Measured values reported in PMC10853261.
# By UniProt entry, the sequences of proteins in these tests, tags left out.
# UniProt O35739: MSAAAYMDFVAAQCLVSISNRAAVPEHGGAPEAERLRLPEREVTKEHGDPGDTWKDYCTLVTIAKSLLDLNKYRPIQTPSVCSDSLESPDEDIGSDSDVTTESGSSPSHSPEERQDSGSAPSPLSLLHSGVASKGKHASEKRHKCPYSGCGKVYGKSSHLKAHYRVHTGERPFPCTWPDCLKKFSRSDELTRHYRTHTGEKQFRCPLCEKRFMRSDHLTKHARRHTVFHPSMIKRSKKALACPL
# UniProt O09106: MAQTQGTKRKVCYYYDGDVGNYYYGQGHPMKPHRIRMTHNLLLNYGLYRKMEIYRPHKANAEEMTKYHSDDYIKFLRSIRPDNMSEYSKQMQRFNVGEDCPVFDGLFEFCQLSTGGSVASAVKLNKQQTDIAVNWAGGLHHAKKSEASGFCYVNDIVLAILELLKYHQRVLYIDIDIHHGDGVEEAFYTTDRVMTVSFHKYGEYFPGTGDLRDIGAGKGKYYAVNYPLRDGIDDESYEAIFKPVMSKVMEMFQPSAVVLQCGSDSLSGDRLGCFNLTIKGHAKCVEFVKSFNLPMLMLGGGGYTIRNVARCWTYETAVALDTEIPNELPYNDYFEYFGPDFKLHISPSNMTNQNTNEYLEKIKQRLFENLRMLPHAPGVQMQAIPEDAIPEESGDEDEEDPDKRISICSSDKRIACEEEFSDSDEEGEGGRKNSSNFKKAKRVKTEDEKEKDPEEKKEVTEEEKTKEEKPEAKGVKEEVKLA
# UniProt P70288: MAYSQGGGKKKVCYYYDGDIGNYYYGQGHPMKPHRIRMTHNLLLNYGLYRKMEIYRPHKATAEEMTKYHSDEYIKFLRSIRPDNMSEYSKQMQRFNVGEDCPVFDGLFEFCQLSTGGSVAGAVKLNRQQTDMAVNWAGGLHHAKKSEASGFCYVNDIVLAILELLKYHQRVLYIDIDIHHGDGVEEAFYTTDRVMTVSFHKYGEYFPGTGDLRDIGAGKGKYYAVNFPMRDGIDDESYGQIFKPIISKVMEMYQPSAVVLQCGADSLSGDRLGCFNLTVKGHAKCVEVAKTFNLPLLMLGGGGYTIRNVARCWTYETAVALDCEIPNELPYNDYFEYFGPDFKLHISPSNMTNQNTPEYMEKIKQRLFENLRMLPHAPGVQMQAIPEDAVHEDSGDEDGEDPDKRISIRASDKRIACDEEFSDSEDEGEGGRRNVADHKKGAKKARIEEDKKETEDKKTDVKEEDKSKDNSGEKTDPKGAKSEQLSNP
# These are yes or no findings as the source states them, for the method shown. In cells and extracts the contact can be indirect. Some entries that bind do so weakly or less than the wild type.
# T1: SIN3A (mouse (endogenous in mouse peritoneal macrophages)) (UniProt Q60520)
# T1 sequence: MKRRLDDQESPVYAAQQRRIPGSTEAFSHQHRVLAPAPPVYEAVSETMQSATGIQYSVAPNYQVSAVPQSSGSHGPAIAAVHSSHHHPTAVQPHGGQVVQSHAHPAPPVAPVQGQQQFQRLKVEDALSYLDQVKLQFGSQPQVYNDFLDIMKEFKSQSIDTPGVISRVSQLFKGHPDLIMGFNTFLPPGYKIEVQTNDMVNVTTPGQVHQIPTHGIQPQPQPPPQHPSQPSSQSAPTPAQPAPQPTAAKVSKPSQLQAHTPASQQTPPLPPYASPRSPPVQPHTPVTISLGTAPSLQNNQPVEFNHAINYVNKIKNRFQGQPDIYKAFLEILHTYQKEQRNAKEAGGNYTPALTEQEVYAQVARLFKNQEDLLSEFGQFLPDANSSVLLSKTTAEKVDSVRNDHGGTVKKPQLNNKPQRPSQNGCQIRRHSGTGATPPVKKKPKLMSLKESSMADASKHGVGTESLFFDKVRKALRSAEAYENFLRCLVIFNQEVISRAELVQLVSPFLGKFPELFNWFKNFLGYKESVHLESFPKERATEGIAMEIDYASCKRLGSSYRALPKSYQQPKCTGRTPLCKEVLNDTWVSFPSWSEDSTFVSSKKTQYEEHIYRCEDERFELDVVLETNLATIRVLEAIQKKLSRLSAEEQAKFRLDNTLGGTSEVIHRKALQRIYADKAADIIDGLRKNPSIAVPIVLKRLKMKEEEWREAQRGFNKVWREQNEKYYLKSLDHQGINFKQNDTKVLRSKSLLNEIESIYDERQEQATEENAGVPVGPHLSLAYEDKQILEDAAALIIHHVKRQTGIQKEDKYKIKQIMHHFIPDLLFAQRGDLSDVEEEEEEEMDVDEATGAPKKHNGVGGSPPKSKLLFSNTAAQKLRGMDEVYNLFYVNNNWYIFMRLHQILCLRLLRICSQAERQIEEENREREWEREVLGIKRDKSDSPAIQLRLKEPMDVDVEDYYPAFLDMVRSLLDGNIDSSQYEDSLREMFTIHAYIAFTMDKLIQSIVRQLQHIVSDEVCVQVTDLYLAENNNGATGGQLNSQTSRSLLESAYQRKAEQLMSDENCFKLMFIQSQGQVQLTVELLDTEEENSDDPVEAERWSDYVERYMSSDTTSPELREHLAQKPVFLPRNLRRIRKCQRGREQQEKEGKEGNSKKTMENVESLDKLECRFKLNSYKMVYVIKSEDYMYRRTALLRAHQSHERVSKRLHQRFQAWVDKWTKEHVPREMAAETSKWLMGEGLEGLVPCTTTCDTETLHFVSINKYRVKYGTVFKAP
# Tests used:
# [1] = target: T1, SIN3A (mouse (endogenous in mouse peritoneal macrophages)); experiment: co-IP; whole-cell lysates of mPMs immunoprecipitated with antibodies against KLF9 or SIN3A, then immunoblotted for SIN3A, HDAC1, HDAC2 or KLF9; endogenous proteins
# [2] = target: Krüppel-like factor 9 (mouse (endogenous in mouse peritoneal macrophages)) (UniProt O35739); experiment: as above
binding [1],binding [2],Molecule
binds,binds,HDAC1 (from UniProt O09106 1-482) (enzyme)
binds,binds,HDAC2 (from UniProt P70288 1-488) (enzyme)
binds,–,Krüppel-like factor 9 (from UniProt O35739 1-244)
–,binds,"SIN3A (protein, UniProt Q60520 1-1274) MKRRLDDQESPVYAAQQRRIPGSTEAFSHQHRVLAPAPPVYEAVSETMQSATGIQYSVAPNYQVSAVPQSSGSHGPAIAAVHSSHHHPTAVQPHGGQVVQSHAHPAPPVAPVQGQQQFQRLKVEDALSYLDQVKLQFGSQPQVYNDFLDIMKEFKSQSIDTPGVISRVSQLFKGHPDLIMGFNTFLPPGYKIEVQTNDMVNVTTPGQVHQIPTHGIQPQPQPPPQHPSQPSSQSAPTPAQPAPQPTAAKVSKPSQLQAHTPASQQTPPLPPYASPRSPPVQPHTPVTISLGTAPSLQNNQPVEFNHAINYVNKIKNRFQGQPDIYKAFLEILHTYQKEQRNAKEAGGNYTPALTEQEVYAQVARLFKNQEDLLSEFGQFLPDANSSVLLSKTTAEKVDSVRNDHGGTVKKPQLNNKPQRPSQNGCQIRRHSGTGATPPVKKKPKLMSLKESSMADASKHGVGTESLFFDKVRKALRSAEAYENFLRCLVIFNQEVISRAELVQLVSPFLGKFPELFNWFKNFLGYKESVHLESFPKERATEGIAMEIDYASCKRLGSSYRALPKSYQQPKCTGRTPLCKEVLNDTWVSFPSWSEDSTFVSSKKTQYEEHIYRCEDERFELDVVLETNLATIRVLEAIQKKLSRLSAEEQAKFRLDNTLGGTSEVIHRKALQRIYADKAADIIDGLRKNPSIAVPIVLKRLKMKEEEWREAQRGFNKVWREQNEKYYLKSLDHQGINFKQNDTKVLRSKSLLNEIESIYDERQEQATEENAGVPVGPHLSLAYEDKQILEDAAALIIHHVKRQTGIQKEDKYKIKQIMHHFIPDLLFAQRGDLSDVEEEEEEEMDVDEATGAPKKHNGVGGSPPKSKLLFSNTAAQKLRGMDEVYNLFYVNNNWYIFMRLHQILCLRLLRICSQAERQIEEENREREWEREVLGIKRDKSDSPAIQLRLKEPMDVDVEDYYPAFLDMVRSLLDGNIDSSQYEDSLREMFTIHAYIAFTMDKLIQSIVRQLQHIVSDEVCVQVTDLYLAENNNGATGGQLNSQTSRSLLESAYQRKAEQLMSDENCFKLMFIQSQGQVQLTVELLDTEEENSDDPVEAERWSDYVERYMSSDTTSPELREHLAQKPVFLPRNLRRIRKCQRGREQQEKEGKEGNSKKTMENVESLDKLECRFKLNSYKMVYVIKSEDYMYRRTALLRAHQSHERVSKRLHQRFQAWVDKWTKEHVPREMAAETSKWLMGEGLEGLVPCTTTCDTETLHFVSINKYRVKYGTVFKAP"
